Assay results: PubChem BioAssay
This list was built around the results that the source calls inconclusive (neither active nor inactive); the mix of calls is not that of the screen. Activity calls are given as the source filed them.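 The calls were made as follows: active = inhibition over a set limit, the all-compound mean plus 3 SD, in both replicate runs; inconclusive = over that limit in just one replicate run; inactive = at or under that limit in both runs.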

Experiment: RAM pathway blockade in budding yeast – dse1pr::URA3 reporter, 5-FOA selection, pilot screen (AID 869);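 also: 0% = DMSO wells with no growth and 100% = 10 µM 1-NA-PP1 with full growth; RAM network block rescues cells from 5-FOA so hits raise OD615 growth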
Conditions: S. cerevisiae dse1pr::URA3 5-FOA growth, OD615, 2 d; at 10 µM; hits give high values; strain carries analog-sensitive mutant Cbk1 kinase

inhibition, inactive:
CN1CCc2c(sc3c2C(=O)NC(c2ccc(-c4cccc(Cl)c4)o2)N3)C1 (centres undefined) 1.89%
N#Cc1ccc(Oc2cccnc2)cc1C#N 1.49%
NC(=O)CN1CCN(C(=O)NC2CCCCC2)CC1 2.7%
Cc1ccc2c(c1)c(C)c(C)n2CC(O)CN1CCCCC1C (centres undefined) 0.91%
Cn1nc(-c2ccc(Cl)cc2)c2cc(C(=O)N3CCN(c4ccccc4)CC3)sc21 3.44%
CCn1cc(C(=O)Nc2ccc3c(c2)OCCO3)c2cc(OC)c(OC)cc2c1=O 0.915%
CC(C)NS(=O)(=O)c1ccc(CCC(=O)NCc2cccnc2)cc1 1.33%
CCN(CC)S(=O)(=O)c1ccc(NC2c3ccccc3C(=O)N2Cc2ccc3c(c2)OCO3)cc1 (centres undefined) -0.09%
COc1cc2c(cc1OC)C1=C(C#N)CN(CC(=O)O)CN1CC2 1.7%
O=C(Nc1sc2c(c1C(=O)O)CCCC2)c1cccs1 -1.22%
O=C1N2CN(C(c3ccccc3)c3ccccc3)CN=C2SC1(CO)CO 1.88%
CCOC(=O)C1C(=O)Oc2ccc3ccccc3c2C1C1CCOC1=O (centres undefined) 0.105%
COc1ccc(-c2nnc(SCC(=O)N3CCN(c4ccccc4)CC3)o2)cc1OC 1.64%
COc1ccc(C2CC(=O)N3CN(c4ccc(C)c(Cl)c4)CSC3=C2C#N)cc1 (centres undefined) 0.91%
CSc1ccc(C2C(C#N)=C(N)N(c3ccccc3)C3=C2C(=O)CCC3)cc1 (centres undefined) 1.18%

inhibition, inconclusive:
Cc1cc2cc(CNC(=O)c3ccc(S(=O)(=O)N4CCOCC4)cc3)ccc2[nH]1 5.09%
Cc1ccccc1-n1c(Cn2c(=O)sc3ccccc32)nnc1SC(C)C 4.33%
CC(CCc1ccccc1)NC(=O)C1CCCN(c2nnc(-n3cccc3)s2)C1 (centres undefined) 4.66%
COc1ccc(-n2c(SCC(=O)Nc3ccc4c(c3)OCO4)nc3c(c2=O)SCC3)cc1 5.98%
C=CCn1c(SCC(=O)c2cccs2)nc2sc(CC)cc2c1=O 4.82%
FC(F)(F)c1nc(N2CCN(c3ccccc3)CC2)nc2c1CCCCC2 4.81%
O=C(CSc1nnc(Cn2c(=O)sc3ccccc32)n1-c1ccccc1)N1CCCC1 3.8%
COC(=O)Cn1c(=NC(=O)CSCC(=O)Nc2cc(C)on2)sc2ccccc21 4.19%
OC(COCC1COc2ccccc2O1)CN1CCc2ccccc2C1 (centres undefined) 3.05%
Clc1cc(Br)ccc1OCCOCCN1CCOCC1 3.8%
COc1ccc(C2C(C(C)=O)=C(O)C(=O)N2CCN(C)C)cc1OC (centres undefined) 4.53%
CSc1cccc(NS(=O)(=O)c2ccc3c(c2)oc(=O)n3C)c1 4.21%
CCc1ccc(N(CC(=O)NC2CCCC2)S(=O)(=O)c2c(C)noc2C)cc1 5.38%
O=C(CSc1nc2c([nH]c3ccccc32)c(=O)n1-c1ccccc1)N1CCOCC1 5.6%
Cn1c(=O)[nH]c(=O)c2c1nc(Sc1ccccc1)n2CCc1ccccc1 10.4%
COc1ccc(C)cc1NS(=O)(=O)c1cccc2nonc12 3.92%
CC(Sc1nc(N2CCOCC2)nc(N2CCOCC2)n1)C(=O)Nc1ccccc1 (centres undefined) 4.17%
CC(C)OCCCNS(=O)(=O)c1ccc2c(c1)oc(=O)n2C 3.52%
CCOc1ccc(Cn2nnc(C(=O)Nc3cc(OC)cc(OC)c3)c2N)cc1 4.92%
COc1cc(OC)c(NS(=O)(=O)c2coc(C(N)=O)c2)cc1Cl 4.29%
CCOC(=O)c1c(C)[nH]c(C(=O)COc2ccc3c(c2)OCO3)c1C 4.02%
COc1ccc(C(=O)Nc2nncs2)c(OC)c1 6.38%
CCC(=O)N1c2ccccc2-c2nnc(SC)nc2OC1c1ccc(OC)c(OC)c1 (centres undefined) 2.87%
CCOc1ccc(C2Oc3nc(SC)nnc3-c3ccccc3N2C(C)=O)cc1OC (centres undefined) 4.32%

Two entries picked at random from those above:
inhibition, inconclusive:
COc1ccc(C)cc1NS(=O)(=O)c1cccc2nonc12 3.92%
Cn1c(=O)[nH]c(=O)c2c1nc(Sc1ccccc1)n2CCc1ccccc1 10.4%
